This is an account of results in PMC9879961.

What all share (test): EMSA
(Mobility shift assays separate free from complexed probe on a gel.)

One series concerns the target T1, CTRB (Homo sapiens) (UniProt P51587).
T1 sequence (looked up): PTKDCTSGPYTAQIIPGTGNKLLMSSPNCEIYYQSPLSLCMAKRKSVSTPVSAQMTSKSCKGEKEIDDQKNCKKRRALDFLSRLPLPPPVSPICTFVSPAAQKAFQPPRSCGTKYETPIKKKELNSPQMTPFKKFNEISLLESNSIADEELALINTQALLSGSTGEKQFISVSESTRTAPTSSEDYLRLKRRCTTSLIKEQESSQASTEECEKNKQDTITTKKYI
The following applies: EMSA: 10 nM DNA, 35 mM Tris pH 7.5, 1 mM MgCl2, 1 mM DTT, 100 ug/ml BSA, 50 mM KCl, 25 C, 5 min, 8% native PAGE in TAE, recombinant protein, residues 3194-3418, protein details: N-term His6-thioredoxin-S (pET32a), C-term Flag.

For series [1], the target named is T2, CTRB-4A K3266A,K3267A,R3268A,R3269A (Homo sapiens) (UniProt P51587).
T2 sequence (looked up): T1 sequence (looked up) with K73A, K74A, R75A, R76A
The following applies: strongly impaired, EMSA: 10 nM DNA, 35 mM Tris pH 7.5, 1 mM MgCl2, 1 mM DTT, 100 ug/ml BSA, 50 mM KCl, 25 C, 5 min, 8% native PAGE in TAE, recombinant protein, residues 3194-3418, protein details: N-term His6-thioredoxin-S (pET32a), C-term Flag.

The target of series [2] is T3, CTRB-F/A F3298A (Homo sapiens) (UniProt P51587).
T3 sequence (looked up): T1 sequence (looked up) with F105A
The note with it: no impact of mutation, EMSA: 10 nM DNA, 35 mM Tris pH 7.5, 1 mM MgCl2, 1 mM DTT, 100 ug/ml BSA, 50 mM KCl, 25 C, 5 min, 8% native PAGE in TAE, recombinant protein, residues 3194-3418, protein details: N-term His6-thioredoxin-S (pET32a), C-term Flag.

The subject of series [3] is mini-BRCA2 (BRC4-DBD-CTRB) + DSS1. The note with it: EMSA: 10 nM DNA, 35 mM Tris pH 7.5, 1 mM MgCl2, 1 mM DTT, 100 ug/ml BSA, 50 mM KCl, 25 C, 5 min, 8% native PAGE in TAE, recombinant protein, protein details: C-term His6-Flag,GST (pDEST20).
Setting [4] is: label: 5' 32P or Cy5, single-stranded DNA.

Numbering of substitutions follows the chain as printed. The exact form of at least one protein or probe is not confirmed. For some assays here: Weaker means in comparison with the reference protein, sequence or condition of that experiment. For some assays here: At least one verdict rests on a figure or table, not on a statement of the authors. For some assays here: Where a protein sequence is shown, tags need not be part of it.

On to “TTGATAAGAGGTCATTTGAATTCATGGCTTAGAGCTTAATTGCTGAATCTGGTGCTGGGATCCAACATGTTTTAAATATG (double strand) [80bp dsDNA (Oligo-H3/H4)]”, for which the binding result with CTRB (Homo sapiens) (affinity about the same as for ssDNA, label: 5' 32P or Cy5 on H3) is on record as “binds”; in series [1] (label: 5' 32P or Cy5 on H3), “binds more weakly”; in series [2] (label: 5' 32P or Cy5 on H3), “binds”; in series [3] (dsDNA affinity similar to CTRB, label: 5' 32P or Cy5 on H3) it was “binds”.

As to “TTGATAAGAGGTCATTTGAATTCATGGCTTAGAGCTTAATTGCTGAATCTGGTGCTGGGATCCAACATGTTTTAAATATG [ssDNA (Oligo-H3, 80-mer)]”, the binding result with CTRB (Homo sapiens) (setting [4]) is listed as “binds”; in series [1] (setting [4]) it was “binds more weakly”; in series [2] (setting [4]), “binds”; in series [3] (higher ssDNA affinity than CTRB, label: 5' 32P or Cy5, single-stranded DNA), “binds”.
